This is an account of results in PubChem BioAssay AID493014 (National Center for Advancing Translational Sciences (NCATS), 2011).

Molecules are shown by their SMILES. This is one part of the list. Further columns of the screen follow, without active or inactive calls. Most of these compounds were active or inconclusive in the main read-out, so they are no random draw. Words in brackets tell the shape of the fitted curve; partial curves, single points and poor fits give uncertain potencies.

This experiment in a line: qHTS Assay to Find Inhibitors of Chronic Active B-Cell Receptor Signaling. The note with it: ABC-DLBCL IkBa-CBG/CBR reporter, luminescence ratio (green luciferase fused to IkBa over red control in TMD8 lymphoma cells), 4 h. An outline of the steps:
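Concentration-response series (up to 46 uM) were applied to TMD8 dual-reporter cells for 4 h at 37C with doxycycline. Green/red ratio, after filter-overlap correction, defined %Activity; red signal alone was normalised to basal cells and zero luminescence.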
On the technique in general: Quantitative high-throughput screening tests each substance at several concentrations.

The mark [1] stands for this setting: measured here: CBR red luminescence, cell number.
The mark [2] stands for this setting: measured here: IkBa-CBG green luminescence.

For the molecule `COc1ccc(NC(=O)CCS(=O)(=O)c2cc(Br)cc3c2N(C(C)=O)CC3)c(OC)c1`, the concentration at half-maximal activity (AC50) (in general, the concentration at which the activity in the assay is half-maximal) under setting [1] is 35.5 µM [falling, single point]. Same read-out and setting: then `O=c1c(-c2ccc(O)cc2)coc2cc(O)cc(O)c12`, with 6.31 µM [falling, partial curve, poor fit]; and `Cc1cc[n+](-c2nc([O-])sc2/C=N/Nc2ccc([N+](=O)[O-])cc2)cc1`, with 0.731 µM [rising, full curve, poor fit]. The same measure, in the same setting: then `O=C(Nc1ccc(CN2CCOCC2)cc1)c1ccccc1F`, with 11.6 µM [falling, partial curve]. Still for that read-out and setting: the result for `Cc1ccc(C(=O)CC(=O)c2ccc(C)cc2O)cc1` reads 35.5 µM [rising, single point].

Take `COc1cc(N/C=C(\C(C)=O)c2ccccc2)cc(OC)c1`: under setting [1], the half-maximal activity concentration (AC50) is 14.6 µM [rising, partial curve, poor fit].

As to `Cc1cc(NS(C)(=O)=O)c(=O)n(Cc2c(F)cccc2Cl)c1`, the half-maximal activity concentration (AC50) under setting [1] was 25.1 µM [rising, partial curve, poor fit].

Turning to `COc1ccc(C(=O)Nc2cccnc2)cc1OC`, the AC50 under setting [1] is 29.1 µM [falling, single point]. The same measure, in the same setting: the result for `O=C(CCCN1C(=O)/C(=C/c2ccccc2)SC1=S)Nc1ccc(O)cc1` reads 2.24 µM [falling, full curve]; that for `Cc1ccc(NC(=O)c2ccc(-c3nn(C)c(=O)c4ccccc34)cc2)c(C)c1`, 6.51 µM [rising, single point]. The same measure, in the same setting: the result for `Nc1cc2nsnc2cc1Br` reads 22.4 µM [falling, single point].

Turning to `Brc1ccc(-c2nnc(-c3ccc4c(c3)OCO4)o2)o1`, the AC50 under setting [1] is 0.092 µM [rising, full curve, poor fit]. The same measure, in the same setting: the result for `COc1ccc(-c2nc(CN3CCC(C(=O)N4CCOCC4)CC3)c(C)o2)cc1C` reads 2.51 µM [rising, full curve].

Take `CCN(CC)CCNC(=O)c1cn(CC)c2cc(N3CCN(C)CC3)c(F)cc2c1=O`: the AC50 is, setting by setting: under setting [1], 25.1 µM [falling, single point]; under setting [2], 35.5 µM [rising, partial curve, poor fit]. As for `O=C(Cc1ccc(Br)cc1)Nc1cccc(S(=O)(=O)N2CCOCC2)c1`, the concentration at half-maximal activity (AC50) under setting [1] is 2.91 µM [rising, partial curve, poor fit]. For `COc1ccccc1OCCCn1cc(C#N)c2ccccc21`, the concentration at half-maximal activity (AC50) under setting [1] was 29.1 µM [falling, single point]. In the case of `COc1ccc(-c2cc(=O)[nH]c(NCc3ccccc3)n2)cc1`, the AC50 was 3.26 µM [rising, partial curve, poor fit] under setting [1] and 20.6 µM [falling, partial curve, poor fit] under setting [2]. For the molecule `CCOc1cc(-c2noc(N)c2C#N)cc(OCC)c1OCC`, under setting [1], the AC50 is 4.47 µM [falling, partial curve, poor fit]. Same read-out and setting: then `O=C(COc1ccccc1Cl)Nc1ccc(Cl)cn1`, with 0.501 µM [rising, full curve, poor fit].

Consider `COc1ccc(-c2c(-c3cc(OC)c(OC)c(OC)c3)noc2C)cn1`, for which the AC50 is 14.1 µM [rising, partial curve] under setting [1] and 11.2 µM [falling, partial curve] under setting [2]. In the case of `Cc1ccc(N2C(=O)N(CC(=O)Nc3c(C)cc(C)cc3Cl)C(=O)C2C)cc1` (stereo not drawn), the AC50 under setting [1] was 6.51 µM [rising, partial curve]. On the same count and under the same terms, the result for `O=C(c1cc(-c2ccc(Cl)cc2)on1)N1CCN(c2ccccc2)CC1` reads 0.224 µM [falling, full curve]; that for `C=CCc1c(C)nc(SCCC)[nH]c1=O`, 10 µM [rising, partial curve]. As for `Cn1c2ccccc2c2c(C(=O)N3CCN(c4ccccn4)CC3)cn(C3CCCC3)c(=O)c21`, the half-maximal activity concentration (AC50) under setting [1] is 8.2 µM [falling, partial curve]. On to `COc1ccc(-c2cc(C(F)(F)F)nc(S(C)(=O)=O)n2)cc1`, for which the AC50 under setting [1] was 10.3 µM [falling, partial curve] and the AC50 under setting [2] was 7.31 µM [rising, partial curve]. As for `OCCNc1nc(-c2cccnc2)nc2ccccc12`, the AC50 under setting [1] is 12.6 µM [falling, partial curve, poor fit].

Regarding `O=C(O)/C=C/C(=O)c1c(-c2ccccc2)[nH]c2ccccc12`, under setting [1], the AC50 was 35.5 µM [falling, single point]. On the same count and under the same terms, then `O=C(CNC(=O)c1ccccc1F)NC1CCN(Cc2ccccc2)CC1`, with 5.01 µM [rising, partial curve, poor fit]. `O=C(CCSCc1ccccc1Cl)NC1CCCC1`: the AC50 under setting [1] was 29.1 µM [rising, single point]. Same read-out and setting: then `CC1SCC(=O)N(CC(=O)NCCc2ccccc2)C1=O` (stereo not drawn), with 5.01 µM [rising, single point]. With `C(=N\Nc1nc2ccccc2[nH]1)/C1CCCCC1`, the AC50 under setting [2] is 35.5 µM [falling, partial curve, poor fit].

Consider `CC1CCCN(CCCNC(=O)c2cc3c(s2)-c2ccccc2OC3)C1` (stereo not drawn), for which the AC50 under setting [1] is 10 µM [falling, partial curve, poor fit]. Still for that read-out and setting: the result for `Cc1c(NC(=O)c2cc(-c3ccc(F)cc3)on2)c(=O)n(-c2ccccc2)n1C` reads 22.4 µM [falling, partial curve, poor fit]; that for `CC(C)=CCC[C@](C)(O)C1CC[C@]2(C)C1[C@H](O)CC1[C@@]3(C)CC[C@H](O[C@@H]4O[C@H](CO)[C@@H](O)[C@H](O)[C@H]4O[C@@H]4O[C@H](CO)[C@@H](O)[C@H](O)[C@H]4O)C(C)(C)C3CC[C@]12C` (stereo partly drawn), 10.3 µM [rising, partial curve]; that for `Clc1cccc(-c2nc(-c3ccccn3)no2)c1`, 17.8 µM [falling, partial curve, poor fit].

Consider `O=C(Nc1sc2c(c1C(=O)O)CCCC2)c1cccc(Cl)c1`, for which, under setting [1], the half-maximal activity concentration (AC50) is 0.112 µM [falling, full curve]. The same measure, in the same setting: then `O=C(CNC(=S)NC(=O)c1cccs1)c1ccccc1`, with 3.66 µM [rising, partial curve, poor fit]; and `Cc1ccc(CC2C(=O)N(c3ccc(C)cc3)C(=O)C2C)cc1` (stereo not drawn), with 11.2 µM [rising, partial curve, poor fit]. As for `O=C(CCNC(=O)c1ccc([N+](=O)[O-])cc1)Nc1cc(Cl)ccc1N1CCOCC1`, the half-maximal activity concentration (AC50) under setting [2] is 16.4 µM [falling, partial curve, poor fit].
